Source: patent US5510332A (priority 1994, dated 1996)
For some assays here: HELM strings list residues between dots; [ac] is acetyl, [am] amide, other brackets name non-standard units. Where no end group is shown, it is not given here.

Key:
[1] = general procedure: Fmoc solid-phase peptide synthesis; Wang resin; HBTU or DIC, HOBT if necessary; conditions: whole synthesis, scale 25 nM
[2] = general procedure: Fmoc solid-phase peptide synthesis; Wang resin (C-terminal acids); Rink resin (C-terminal amides); HBTU or DIC, HOBT if necessary; conditions: whole synthesis, analytical HPLC, scale of the general procedure 25 nM
[3] = general procedure: Fmoc solid-phase peptide synthesis; Rink resin; HBTU or DIC, HOBT if necessary; conditions: whole synthesis, scale 25 nM

| Substance | crude mass [1] [mg] | isolated mass [1] [mg] | final HPLC purity [2] [% pure] | isolated mass [3] [mg] |
| --- | --- | --- | --- | --- |
| PEPTIDE1{E.W.L.D.V}$$$$V2.0 | 12.2 | 4.5 | >98 |  |
| DPEWLDVPST-NH2 |  |  | >99 | 10.9 |
